The target of this assay is extracellular domain of the alpha subunit of the human FcεRI (aa 1-176) (human) (UniProt P12319). Description: competitive phage ELISA on FcεRI (FIG. 3).

Protein sequences, listed by entry. Tags and fused reporters are not part of them. Residues count along the entry.
UniProt P12319, residues 26-201: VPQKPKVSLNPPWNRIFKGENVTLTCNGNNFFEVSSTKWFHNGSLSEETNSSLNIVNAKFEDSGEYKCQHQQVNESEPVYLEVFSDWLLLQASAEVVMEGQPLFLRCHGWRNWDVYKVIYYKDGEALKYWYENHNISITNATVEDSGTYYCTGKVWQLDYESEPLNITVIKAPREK

No constants are given. Whether binding was seen depends on the method and setting. Some binding calls cover weakened binding; strength is not graded here.

As to “IGE134-phage … (from UniProt P01241 27-217) (peptide)”, the binding entry was “binds”.

The record behind these values is patent publication US7101851 (dated 2006).
